Measured values taken from patent US20260217821A1 (SPH BIOTHERAPEUTICS SHANGHAI, published 2026).
Results are given in words; binding and its absence hold for the method and conditions named.

Legend:
RBD (his-tagged protein) [1] = test: specificity ELISA, HRP anti-HA detection (FIG. 9A)
[2] = target: PD-L1 (his-tagged protein); test: specificity ELISA, HRP anti-HA detection (FIG. 9A)
RBD (his-tagged protein) [3] = test: specificity ELISA, HRP anti-HA detection (FIGS. 9A-9B)
[4] = target: PD-L1 (his-tagged protein); test: as above
RBD (his-tagged protein) [5] = test: specificity ELISA, HRP anti-HA detection (FIG. 9B)
[6] = target: PD-L1 (his-tagged protein); test: specificity ELISA, HRP anti-HA detection (FIG. 9B)

B1: 5-26 (VHH)
VHH: QVQLQESGGGLVQPGGSLRLSCAASGFTLDLYAIGWFRQAPGKERERVSCISSGGSTNYAESVKGRFTISRDNGKNTVYLQMNSLKPEDTAVYYCVRSVPSCGSYYFPPRNMNYWGKGTQVTVSS
notes: Alpaca VHH from the phage library; not shown: one his tag and one HA tag at the C-terminus
**Q.** What does the source list for B1?
**A.** binding (RBD (his-tagged protein) [1]): no binding (tested: 3 µg/ml); binding [2]: no binding (tested: 3 µg/ml)

B2: 5-09 (VHH)
VHH: QVQLQESGGGLVQPGGSLRLSCAASGFTLDDYAIGWFRQAPGKERERISCISSGGNTNYADSVKGRFTLSRDNAKNTVYLQMYSLKPEDTAVYYCTASIPSCASYYFPPRNMDYWGKGTQVTVSS
notes: also called 5-9; not shown: one his tag and one HA tag at the C-terminus
**Q.** How did the binding (RBD (his-tagged protein) [3]) turn out when B2 was run?
**A.** The binding was “no binding (tested: 3 µg/ml)”.

**Q.** And the binding [4]?
**A.** The binding was “no binding (tested: 3 µg/ml)”.

B3: 5-95 (VHH)
VHH: QVQLQESGGGLVQPGGSLRLSCAASGFTFSTYSMTWVRQAPGKGLEWVSDINSGGSVAYYTDSVKGRFTASRDNAKNTLYLQMNSLKPEDTAVYYCYEGGYHGGSPRGHGTQVTVSS
notes: not shown: one his tag and one HA tag at the C-terminus
**Q.** B3 was tested. Which binding (RBD (his-tagged protein) [3]) did it give?
**A.** Its binding is “no binding (tested: 3 µg/ml)”.

**Q.** And the binding [4]?
**A.** Its binding is “no binding (tested: 3 µg/ml)”.

B4: 4-92 (VHH)
VHH: QVQLQESGGGLVQPGGSLRLSCAASGFAFSSRAMSWVRQAPGKGLEWVSDINYDGAWTYYADSVKGRFTISRDNAKNTLYLQMNSLKPEDTAVYFCTDPWSIDGWGQGTQVTVSS
notes: as for B1
**Q.** Which results are given for B4?
**A.** binding (RBD (his-tagged protein) [5]): no binding (tested: 3 µg/ml); binding [6]: no binding (tested: 3 µg/ml)
